This is one part of the list.
What was measured:
Experiment in all cases: log2 fold change, soluble protein after heating vs DMSO (PISA); higher = thermal stabilisation; K562 cells, 10 uM, 30 min; active = over 0.2 and 3.5 SD of the protein, either way, in both replicates (recomputed)
[1] = compound: COC1=CC=C(C=C1)CN2C=CC3=C2C=C(C=C3)C(=O)NO
How it was run: (§1)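 For each measurement, 10 μM compound was applied for 30 min to K562 cells at 2×10^6 cells/mL. Aliquots were heated for 3 min across 48°C-58°C, pooled, and extracted in PBS with 0.5% NP-40 at 4°C; the supernatant after 21,000xg for 90 min was soluble protein. This was quantified by TMTpro 16plex LC-MS/MS with channel sums equalised, and thermal stability was reported relative to control samples from duplicates, on a log2 fold-change scale.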

Protein sequences, listed by entry. Tags and fused reporters are not part of them. Lines headed by an entry give the natural chain unless they say otherwise; changes in a name come on top.
UniProt P00568: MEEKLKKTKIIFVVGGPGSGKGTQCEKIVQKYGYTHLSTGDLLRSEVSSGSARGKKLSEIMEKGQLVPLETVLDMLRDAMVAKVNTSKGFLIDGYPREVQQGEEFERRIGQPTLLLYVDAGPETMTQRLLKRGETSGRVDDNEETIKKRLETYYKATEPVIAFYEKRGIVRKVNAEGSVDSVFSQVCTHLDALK
UniProt Q53H12: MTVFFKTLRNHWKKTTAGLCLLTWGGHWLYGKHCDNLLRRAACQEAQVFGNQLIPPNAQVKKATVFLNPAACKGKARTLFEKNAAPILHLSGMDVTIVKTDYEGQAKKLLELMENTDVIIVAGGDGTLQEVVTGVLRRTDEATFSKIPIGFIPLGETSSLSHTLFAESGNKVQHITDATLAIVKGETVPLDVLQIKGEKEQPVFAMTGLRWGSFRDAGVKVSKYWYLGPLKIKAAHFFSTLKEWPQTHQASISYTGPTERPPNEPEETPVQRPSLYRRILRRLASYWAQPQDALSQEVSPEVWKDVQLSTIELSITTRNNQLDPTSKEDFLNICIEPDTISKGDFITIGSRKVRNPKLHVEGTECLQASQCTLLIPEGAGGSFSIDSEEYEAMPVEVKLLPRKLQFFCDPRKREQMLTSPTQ
UniProt Q9Y303: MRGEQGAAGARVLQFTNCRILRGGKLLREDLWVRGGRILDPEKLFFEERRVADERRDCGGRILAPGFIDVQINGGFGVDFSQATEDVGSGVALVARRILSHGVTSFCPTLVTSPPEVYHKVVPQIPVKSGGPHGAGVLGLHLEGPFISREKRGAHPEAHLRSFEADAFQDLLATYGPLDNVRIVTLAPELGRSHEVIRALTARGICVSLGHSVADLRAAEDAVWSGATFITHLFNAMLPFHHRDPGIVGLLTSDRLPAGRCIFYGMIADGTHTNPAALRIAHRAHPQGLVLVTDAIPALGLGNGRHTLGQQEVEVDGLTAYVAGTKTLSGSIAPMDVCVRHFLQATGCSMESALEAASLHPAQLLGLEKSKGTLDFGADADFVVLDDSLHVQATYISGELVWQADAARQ
UniProt Q96Q83: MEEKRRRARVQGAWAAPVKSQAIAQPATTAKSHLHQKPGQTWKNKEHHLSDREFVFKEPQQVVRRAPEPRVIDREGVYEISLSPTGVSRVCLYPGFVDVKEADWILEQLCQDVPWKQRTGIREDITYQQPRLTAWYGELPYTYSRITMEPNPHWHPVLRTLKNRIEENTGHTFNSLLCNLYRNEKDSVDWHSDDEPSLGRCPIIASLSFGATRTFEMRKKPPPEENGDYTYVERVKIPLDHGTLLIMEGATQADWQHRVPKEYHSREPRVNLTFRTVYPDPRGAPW
UniProt Q6RW13: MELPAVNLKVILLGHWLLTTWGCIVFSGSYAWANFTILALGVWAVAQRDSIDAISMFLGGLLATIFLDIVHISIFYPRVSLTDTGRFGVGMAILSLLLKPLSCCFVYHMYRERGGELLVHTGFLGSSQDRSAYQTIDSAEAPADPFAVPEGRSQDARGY
UniProt Q53H80, whole entry, looked up: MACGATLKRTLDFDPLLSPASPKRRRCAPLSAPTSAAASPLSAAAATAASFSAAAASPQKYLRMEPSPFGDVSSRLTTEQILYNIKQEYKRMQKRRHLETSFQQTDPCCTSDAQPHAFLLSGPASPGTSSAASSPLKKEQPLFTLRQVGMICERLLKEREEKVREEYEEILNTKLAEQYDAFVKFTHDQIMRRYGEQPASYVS
UniProt P30520: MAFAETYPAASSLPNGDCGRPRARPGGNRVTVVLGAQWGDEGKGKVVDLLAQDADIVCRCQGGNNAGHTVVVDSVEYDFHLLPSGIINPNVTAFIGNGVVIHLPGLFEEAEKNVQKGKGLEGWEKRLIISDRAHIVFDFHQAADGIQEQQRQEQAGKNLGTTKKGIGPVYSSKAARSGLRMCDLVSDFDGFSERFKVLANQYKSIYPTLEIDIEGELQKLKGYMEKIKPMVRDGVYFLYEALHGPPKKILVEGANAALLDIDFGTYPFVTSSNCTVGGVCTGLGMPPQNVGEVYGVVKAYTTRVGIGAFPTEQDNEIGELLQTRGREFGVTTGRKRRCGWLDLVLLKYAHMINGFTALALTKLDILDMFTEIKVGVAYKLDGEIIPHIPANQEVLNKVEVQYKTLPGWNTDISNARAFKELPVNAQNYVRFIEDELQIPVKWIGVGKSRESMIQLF
UniProt Q9BVK2: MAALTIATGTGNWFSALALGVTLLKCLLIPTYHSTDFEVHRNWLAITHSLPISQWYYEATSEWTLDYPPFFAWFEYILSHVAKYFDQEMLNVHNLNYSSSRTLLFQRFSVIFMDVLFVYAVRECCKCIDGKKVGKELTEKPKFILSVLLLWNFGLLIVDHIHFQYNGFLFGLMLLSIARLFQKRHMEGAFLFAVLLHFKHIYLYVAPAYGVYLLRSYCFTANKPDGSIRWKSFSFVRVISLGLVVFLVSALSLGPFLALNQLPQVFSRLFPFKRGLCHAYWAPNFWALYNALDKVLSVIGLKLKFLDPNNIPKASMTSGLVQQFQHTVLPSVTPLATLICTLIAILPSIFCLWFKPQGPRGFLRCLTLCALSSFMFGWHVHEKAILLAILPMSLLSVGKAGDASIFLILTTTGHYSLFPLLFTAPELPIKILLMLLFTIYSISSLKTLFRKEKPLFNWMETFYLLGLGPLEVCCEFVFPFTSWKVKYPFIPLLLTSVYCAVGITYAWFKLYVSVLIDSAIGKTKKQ
UniProt P52594: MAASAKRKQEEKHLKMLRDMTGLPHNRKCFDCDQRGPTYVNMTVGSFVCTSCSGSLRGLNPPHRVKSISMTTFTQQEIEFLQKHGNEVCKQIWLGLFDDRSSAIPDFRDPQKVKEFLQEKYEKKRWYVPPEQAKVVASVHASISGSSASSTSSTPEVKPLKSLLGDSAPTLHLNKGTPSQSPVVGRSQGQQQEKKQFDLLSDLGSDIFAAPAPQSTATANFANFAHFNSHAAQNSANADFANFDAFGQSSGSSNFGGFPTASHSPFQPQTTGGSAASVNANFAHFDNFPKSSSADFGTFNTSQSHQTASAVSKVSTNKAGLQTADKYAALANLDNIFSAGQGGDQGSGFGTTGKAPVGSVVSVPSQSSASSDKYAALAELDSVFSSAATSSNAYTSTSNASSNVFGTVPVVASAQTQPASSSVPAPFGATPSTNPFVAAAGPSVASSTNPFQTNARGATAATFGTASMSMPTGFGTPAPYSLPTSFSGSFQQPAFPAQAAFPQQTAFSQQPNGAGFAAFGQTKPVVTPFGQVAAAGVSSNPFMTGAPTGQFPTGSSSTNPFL
UniProt P23526: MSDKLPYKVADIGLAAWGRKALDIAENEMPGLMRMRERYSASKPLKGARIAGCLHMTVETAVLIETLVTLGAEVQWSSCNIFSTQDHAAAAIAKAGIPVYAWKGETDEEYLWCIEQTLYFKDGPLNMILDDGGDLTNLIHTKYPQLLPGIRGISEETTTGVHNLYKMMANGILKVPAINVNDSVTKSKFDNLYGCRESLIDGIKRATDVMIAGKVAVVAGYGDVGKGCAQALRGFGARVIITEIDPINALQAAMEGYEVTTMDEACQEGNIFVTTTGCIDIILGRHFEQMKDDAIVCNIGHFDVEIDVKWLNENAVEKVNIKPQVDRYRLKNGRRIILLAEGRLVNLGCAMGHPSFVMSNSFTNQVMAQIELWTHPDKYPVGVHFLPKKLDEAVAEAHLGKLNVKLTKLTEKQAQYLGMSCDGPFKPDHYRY
UniProt Q9BRR6: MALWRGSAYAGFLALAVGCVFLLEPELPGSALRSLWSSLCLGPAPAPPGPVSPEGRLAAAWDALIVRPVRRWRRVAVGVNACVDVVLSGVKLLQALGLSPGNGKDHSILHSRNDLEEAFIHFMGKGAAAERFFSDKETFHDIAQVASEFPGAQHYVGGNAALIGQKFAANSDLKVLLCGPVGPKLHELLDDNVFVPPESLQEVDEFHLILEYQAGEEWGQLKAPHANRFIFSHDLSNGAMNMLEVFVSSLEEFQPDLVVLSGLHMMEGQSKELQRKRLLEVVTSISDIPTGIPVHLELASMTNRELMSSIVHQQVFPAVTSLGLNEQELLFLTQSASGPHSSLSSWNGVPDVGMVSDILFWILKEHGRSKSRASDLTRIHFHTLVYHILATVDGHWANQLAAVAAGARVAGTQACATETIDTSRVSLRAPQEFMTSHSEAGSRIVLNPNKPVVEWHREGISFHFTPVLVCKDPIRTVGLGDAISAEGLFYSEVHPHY
UniProt Q01433: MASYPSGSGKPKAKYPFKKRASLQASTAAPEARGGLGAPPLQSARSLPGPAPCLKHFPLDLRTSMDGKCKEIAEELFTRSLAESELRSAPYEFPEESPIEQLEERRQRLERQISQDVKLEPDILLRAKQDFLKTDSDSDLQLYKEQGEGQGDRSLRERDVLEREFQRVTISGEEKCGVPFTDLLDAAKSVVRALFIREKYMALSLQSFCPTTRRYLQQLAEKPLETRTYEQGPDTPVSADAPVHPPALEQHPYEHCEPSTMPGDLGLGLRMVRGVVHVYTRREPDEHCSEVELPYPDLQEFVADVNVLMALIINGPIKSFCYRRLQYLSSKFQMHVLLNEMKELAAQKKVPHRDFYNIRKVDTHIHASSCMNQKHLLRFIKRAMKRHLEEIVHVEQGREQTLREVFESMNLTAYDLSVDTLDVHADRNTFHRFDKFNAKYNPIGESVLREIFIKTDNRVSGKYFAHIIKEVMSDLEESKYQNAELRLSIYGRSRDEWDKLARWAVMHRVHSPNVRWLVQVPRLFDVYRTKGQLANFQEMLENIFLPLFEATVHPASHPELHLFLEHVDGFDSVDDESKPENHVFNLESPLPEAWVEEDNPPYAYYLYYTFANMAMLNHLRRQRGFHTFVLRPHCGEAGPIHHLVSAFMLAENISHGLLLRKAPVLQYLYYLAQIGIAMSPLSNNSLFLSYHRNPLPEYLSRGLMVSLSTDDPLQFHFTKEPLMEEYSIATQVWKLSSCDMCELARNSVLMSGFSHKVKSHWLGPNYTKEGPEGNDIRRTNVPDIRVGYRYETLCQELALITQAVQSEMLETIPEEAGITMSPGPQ
UniProt Q9Y4W6: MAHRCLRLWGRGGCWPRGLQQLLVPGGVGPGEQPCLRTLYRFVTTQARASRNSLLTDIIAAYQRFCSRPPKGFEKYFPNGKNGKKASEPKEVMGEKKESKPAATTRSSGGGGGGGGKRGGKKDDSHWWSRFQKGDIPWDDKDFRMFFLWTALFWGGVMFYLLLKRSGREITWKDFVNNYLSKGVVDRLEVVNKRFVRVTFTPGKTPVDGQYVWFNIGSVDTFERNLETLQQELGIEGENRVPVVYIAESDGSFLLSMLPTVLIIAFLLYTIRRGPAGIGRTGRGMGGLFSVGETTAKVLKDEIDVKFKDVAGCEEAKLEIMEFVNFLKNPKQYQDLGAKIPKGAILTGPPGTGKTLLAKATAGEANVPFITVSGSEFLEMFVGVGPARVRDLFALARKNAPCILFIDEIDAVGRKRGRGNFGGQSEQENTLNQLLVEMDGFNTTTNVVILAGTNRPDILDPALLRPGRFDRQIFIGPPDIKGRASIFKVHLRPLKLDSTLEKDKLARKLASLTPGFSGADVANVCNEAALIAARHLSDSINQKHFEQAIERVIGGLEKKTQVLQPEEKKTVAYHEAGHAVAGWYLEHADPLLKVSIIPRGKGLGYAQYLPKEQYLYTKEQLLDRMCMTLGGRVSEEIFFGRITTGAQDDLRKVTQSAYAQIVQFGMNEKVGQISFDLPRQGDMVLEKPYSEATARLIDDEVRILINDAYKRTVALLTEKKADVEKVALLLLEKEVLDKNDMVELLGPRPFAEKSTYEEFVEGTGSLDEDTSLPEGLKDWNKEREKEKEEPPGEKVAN
UniProt P27144: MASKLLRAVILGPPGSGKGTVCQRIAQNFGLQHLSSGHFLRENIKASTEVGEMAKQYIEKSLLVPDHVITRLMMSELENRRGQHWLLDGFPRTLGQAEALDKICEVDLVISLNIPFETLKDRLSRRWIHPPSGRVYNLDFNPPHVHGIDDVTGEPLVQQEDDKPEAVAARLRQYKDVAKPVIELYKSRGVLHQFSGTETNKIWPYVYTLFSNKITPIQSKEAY
UniProt O43488: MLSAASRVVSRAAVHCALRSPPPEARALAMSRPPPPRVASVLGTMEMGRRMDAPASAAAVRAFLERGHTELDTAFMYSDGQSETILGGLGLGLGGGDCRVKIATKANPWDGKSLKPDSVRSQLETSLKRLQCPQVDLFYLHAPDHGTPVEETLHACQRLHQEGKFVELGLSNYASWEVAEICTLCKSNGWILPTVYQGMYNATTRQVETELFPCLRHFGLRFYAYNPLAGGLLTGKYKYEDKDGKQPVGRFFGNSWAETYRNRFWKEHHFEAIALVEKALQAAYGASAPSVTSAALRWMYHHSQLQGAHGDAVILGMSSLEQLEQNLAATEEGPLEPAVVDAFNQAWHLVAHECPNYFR

filanesib = compound: CON(C)C(=O)N1N=C(c2cc(F)ccc2F)S[C@@]1(CCCN)c1ccccc1 [filanesib]
How it was run: as §1

zotarolimus = compound: CO[C@H]1C[C@@H]2CC[C@@H](C)[C@@](O)(O2)C(=O)C(=O)N2CCCC[C@H]2C(=O)O[C@H]([C@H](C)C[C@@H]2CC[C@H](n3cnnn3)[C@H](OC)C2)CC(=O)[C@H](C)/C=C(\C)[C@@H](O)[C@@H](OC)C(=O)[C@H](C)C[C@H](C)/C=C/C=C/C=C/1C [zotarolimus]
How it was run: as §1

idasanutlin = compound: COc1cc(C(=O)O)ccc1NC(=O)[C@@H]1N[C@@H](CC(C)(C)C)[C@](C#N)(c2ccc(Cl)cc2F)[C@H]1c1cccc(Cl)c1F [idasanutlin]
How it was run: as §1

alisertib = compound: COc1cc(Nc2ncc3c(n2)-c2ccc(Cl)cc2C(c2c(F)cccc2OC)=NC3)ccc1C(=O)O [alisertib]
How it was run: as §1

[2] = compound: COc1cc2nc(-c3cc(F)ccc3O)nc(N[C@@H]3CNC[C@H]3C(C)(C)O)c2cc1OC
How it was run: as §1

gefitinib = compound: COc1cc2ncnc(Nc3ccc(F)c(Cl)c3)c2cc1OCCCN1CCOCC1 [gefitinib]
How it was run: as §1

[3] = compound: COc1cccc2cc(-c3nc([C@H]4CC[C@H](C(=O)O)CC4)n4ncnc(N)c34)[nH]c12
How it was run: as §1

lapatinib = compound: CS(=O)(=O)CCNCc1ccc(-c2ccc3ncnc(Nc4ccc(OCc5cccc(F)c5)c(Cl)c4)c3c2)o1 [lapatinib]
How it was run: as §1

pictilisib = compound: CS(=O)(=O)N1CCN(Cc2cc3nc(-c4cccc5[nH]ncc45)nc(N4CCOCC4)c3s2)CC1 [pictilisib]
How it was run: as §1

[4] = compound: CS(=O)(=O)c1ccc(-c2cnc(N)c(C(=O)Nc3ccccc3)n2)cc1
How it was run: as §1

crizotinib = compound: C[C@@H](Oc1cc(-c2cnn(C3CCNCC3)c2)cnc1N)c1c(Cl)ccc(F)c1Cl [crizotinib]
How it was run: as §1

[5] = compound: C[C@@H]1COCCN1C2=NC(=NC(=C2)C3(CC3)S(=O)(=O)C)C4=C5C=CNC5=CC=C4
How it was run: as §1

[6] = compound: C[C@H](C1=CC=C(C=C1)C(=O)NC2=C3C=CNC3=NC=C2)N
How it was run: as §1

duvelisib = compound: C[C@H](Nc1ncnc2nc[nH]c12)c1cc2cccc(Cl)c2c(=O)n1-c1ccccc1 [duvelisib]
How it was run: as §1

gandotinib = compound: Cc1cc(Nc2cc(CN3CCOCC3)c3nc(C)c(Cc4ccc(Cl)cc4F)n3n2)n[nH]1 [gandotinib]
How it was run: as §1

tozasertib = compound: Cc1cc(Nc2cc(N3CCN(C)CC3)nc(Sc3ccc(NC(=O)C4CC4)cc3)n2)n[nH]1 [tozasertib]
How it was run: as §1

[7] = compound: Cc1cc(SCc2sc(-c3ccc(C(F)(F)F)cc3)nc2C)ccc1OCC(=O)O
How it was run: as §1

doramapimod = compound: Cc1ccc(-n2nc(C(C)(C)C)cc2NC(=O)Nc2ccc(OCCN3CCOCC3)c3ccccc23)cc1 [doramapimod]
How it was run: as §1

ispinesib = compound: Cc1ccc(C(=O)N(CCCN)[C@@H](c2nc3cc(Cl)ccc3c(=O)n2Cc2ccccc2)C(C)C)cc1 [ispinesib]
How it was run: as §1

Measured: log2 fold change

AK1 (UniProt P00568)
inactive: [1] 0.001 | filanesib -0.038 | zotarolimus -0.02 | idasanutlin -0.072 | alisertib -0.029 | [2] 0.007 | gefitinib -0.026 | [3] 0.009 | lapatinib -0.01 | pictilisib 0.208 | [4] 0.06 | crizotinib -0.038 | [5] 0.131 | [6] 0.012 | duvelisib 0.068 | gandotinib 0.003 | tozasertib -0.029 | [7] 0.032 | doramapimod -0.06 | ispinesib 0.077

AGK (UniProt Q53H12)
inactive: [1] 0.136 | filanesib -0.075 | zotarolimus 0.051 | idasanutlin -0.02 | alisertib -0.045 | [2] -0.055 | gefitinib 0.034 | [3] 0.012 | lapatinib 0.019 | pictilisib 0.112 | [4] 0.027 | crizotinib -0.013 | [5] 0.08 | [6] -0.011 | duvelisib 0.008 | gandotinib 0.004 | tozasertib -0.034 | [7] -0.032 | doramapimod -0.005 | ispinesib -0.126

AMDHD2 isoform 3 (UniProt Q9Y303)
inactive: [1] -0.149 | filanesib -0.052 | zotarolimus -0.002 | idasanutlin -0.06 | alisertib -0.036 | [2] 0.094 | gefitinib -0.007 | [3] 0.027 | lapatinib -0.009 | pictilisib 0.058 | [4] 0.062 | crizotinib -0.03 | [5] 0.036 | [6] 0.001 | duvelisib 0.059 | gandotinib -0.009 | tozasertib -0.069 | [7] 0.019 | doramapimod 0.042 | ispinesib -0.027

ALKBH3 (UniProt Q96Q83)
inactive: [1] -0.152 | filanesib -0.001 | zotarolimus -0.065 | idasanutlin -0.002 | alisertib -0.028 | [2] 0.013 | gefitinib -0.038 | [3] 0.026 | lapatinib 0.016 | pictilisib 0.043 | [4] 0.015 | crizotinib 0.009 | [5] -0.053 | [6] -0.014 | duvelisib 0.008 | gandotinib 0.023 | tozasertib -0.033 | [7] 0.012 | doramapimod -0.054 | ispinesib 0.014

AGTRAP (UniProt Q6RW13)
inactive: [1] -0.092 | filanesib -0.005 | zotarolimus 0.075 | idasanutlin -0.114 | alisertib 0.117 | [2] -0.049 | gefitinib 0.005 | [3] 0.025 | lapatinib -0.058 | pictilisib 0.052 | [4] 0.002 | crizotinib -0.052 | [5] 0.216 | [6] -0.031 | duvelisib 0.133 | gandotinib -0.122 | tozasertib 0.021 | [7] -0.033 | doramapimod 0.036 | ispinesib -0.062

AKIRIN2 (UniProt Q53H80)
inactive: [1] -0.091 | filanesib 0.024 | zotarolimus 0.149 | idasanutlin -0.03 | alisertib 0.11 | [2] -0.106 | gefitinib -0.001 | [3] 0.121 | lapatinib 0.031 | pictilisib 0.153 | [4] -0.101 | crizotinib -0.28 | [5] -0.308 | [6] -0.105 | duvelisib 0.028 | gandotinib -0.176 | tozasertib 0.062 | [7] 0.028 | doramapimod 0.037 | ispinesib -0.017

ADSS2 (UniProt P30520)
inactive: [1] -0.002 | filanesib -0.036 | zotarolimus -0.009 | idasanutlin -0.054 | alisertib -0.048 | [2] 0.059 | gefitinib 0.024 | [3] 0.019 | lapatinib 0.003 | pictilisib 0.037 | [4] 0.051 | crizotinib 0.073 | [5] 0.044 | [6] -0.02 | duvelisib 0.025 | gandotinib 0 | tozasertib -0.028 | [7] 0.009 | doramapimod -0.003 | ispinesib 0.055

ALG8 (UniProt Q9BVK2)
inactive: [1] -0.036 | filanesib -0.1 | zotarolimus 0.029 | idasanutlin -0.197 | alisertib -0.005 | [2] -0.041 | gefitinib -0.029 | [3] 0.037 | lapatinib 0.043 | pictilisib -0.026 | [4] 0.039 | crizotinib -0.055 | [5] 0.1 | [6] -0.015 | duvelisib -0.028 | gandotinib -0.046 | tozasertib 0.022 | [7] 0.034 | doramapimod -0.002 | ispinesib -0.128

AGFG1 isoform 4 (UniProt P52594)
inactive: [1] 0.247 | filanesib 0.001 | zotarolimus 0.021 | idasanutlin -0.042 | alisertib -0.001 | [2] 0.048 | gefitinib 0.016 | [3] -0.027 | lapatinib 0.015 | pictilisib -0.045 | [4] -0.022 | crizotinib 0.066 | [5] 0.117 | [6] -0.082 | duvelisib 0.013 | gandotinib -0.016 | tozasertib 0.061 | [7] 0.003 | doramapimod -0.009 | ispinesib 0.051

AHCY (UniProt P23526)
inactive: [1] 0.024 | filanesib -0.044 | zotarolimus 0.007 | idasanutlin -0.007 | alisertib -0.105 | [2] -0.008 | gefitinib -0.002 | [3] 0.045 | lapatinib -0.019 | pictilisib 0.02 | [4] 0.006 | crizotinib 0.023 | [5] 0.017 | [6] -0.041 | duvelisib 0.01 | gandotinib 0.041 | tozasertib -0.028 | [7] -0.012 | doramapimod -0.025 | ispinesib 0.057

ADPGK (UniProt Q9BRR6)
inactive: [1] 0.072 | filanesib -0.034 | zotarolimus -0.078 | idasanutlin -0.052 | alisertib -0.025 | [2] 0.025 | gefitinib -0.003 | [3] 0.003 | lapatinib -0.039 | pictilisib -0.002 | [4] 0.028 | crizotinib 0.098 | [5] 0.137 | [6] 0.029 | duvelisib 0.057 | gandotinib -0.049 | tozasertib -0.045 | [7] 0.057 | doramapimod -0.01 | ispinesib 0.053

Taken from the results shown (two entries):
AGFG1 isoform 4 (UniProt P52594)
inactive: [1] 0.247 | filanesib 0.001 | zotarolimus 0.021 | idasanutlin -0.042 | alisertib -0.001 | [2] 0.048 | gefitinib 0.016 | [3] -0.027 | lapatinib 0.015 | pictilisib -0.045 | [4] -0.022 | crizotinib 0.066 | [5] 0.117 | [6] -0.082 | duvelisib 0.013 | gandotinib -0.016 | tozasertib 0.061 | [7] 0.003 | doramapimod -0.009 | ispinesib 0.051

AHCY (UniProt P23526)
inactive: [1] 0.024 | filanesib -0.044 | zotarolimus 0.007 | idasanutlin -0.007 | alisertib -0.105 | [2] -0.008 | gefitinib -0.002 | [3] 0.045 | lapatinib -0.019 | pictilisib 0.02 | [4] 0.006 | crizotinib 0.023 | [5] 0.017 | [6] -0.041 | duvelisib 0.01 | gandotinib 0.041 | tozasertib -0.028 | [7] -0.012 | doramapimod -0.025 | ispinesib 0.057

(listing goes on)

AMPD2 (UniProt Q01433)
inactive: [1] -0.017 | filanesib -0.089 | zotarolimus -0.008 | idasanutlin -0.055 | alisertib -0.029 | [2] -0.026 | gefitinib 0 | [3] 0.043 | lapatinib 0.007 | pictilisib 0.013 | [4] 0.015 | crizotinib 0.037 | [5] 0.048 | [6] -0.033 | duvelisib 0.025 | gandotinib -0.027 | tozasertib -0.025 | [7] -0.012 | doramapimod -0.005 | ispinesib 0.032

AFG3L2 (UniProt Q9Y4W6)
inactive: [1] -0.098 | filanesib -0.074 | zotarolimus -0.029 | idasanutlin 0.072 | alisertib 0.011 | [2] 0.017 | gefitinib -0.013 | [3] 0.036 | lapatinib -0.074 | pictilisib -0.019 | [4] 0.009 | crizotinib 0.004 | [5] 0.053 | [6] -0.012 | duvelisib 0.043 | gandotinib -0.039 | tozasertib -0.014 | [7] 0.01 | doramapimod -0.011 | ispinesib -0.188

AK4 (UniProt P27144)
inactive: [1] 0.003 | filanesib -0.057 | zotarolimus -0.009 | idasanutlin -0.071 | alisertib 0.017 | [2] 0.023 | gefitinib -0.011 | [3] 0.059 | lapatinib -0.068 | pictilisib 0.047 | [4] 0.017 | crizotinib 0.088 | [5] 0.153 | [6] -0.071 | duvelisib 0.065 | gandotinib -0.039 | tozasertib -0.018 | [7] 0.012 | doramapimod 0.003 | ispinesib 0.041

AKR7A2 (UniProt O43488)
inactive: [1] -0.045 | filanesib -0.1 | zotarolimus 0.056 | idasanutlin -0.085 | alisertib -0.084 | [2] -0.045 | gefitinib 0.003 | [3] -0.088 | lapatinib 0.116 | pictilisib 0.043 | [4] -0.039 | crizotinib 0.011 | [5] 0.126 | [6] -0.182 | duvelisib -0.028 | gandotinib -0.032 | tozasertib -0.009 | [7] 0.052 | doramapimod -0.049 | ispinesib 0.011

AKR1B1 (UniProt P15121)
inactive: [1] -0.051 | filanesib 0.003 | zotarolimus -0.027 | idasanutlin 0.021 | alisertib -0.049 | [2] -0.106 | gefitinib 0.027 | [3] 0.021 | lapatinib 0.036 | pictilisib 0.066 | [4] 0.04 | crizotinib -0.047 | [5] 0.023 | [6] -0.092 | duvelisib 0.035 | gandotinib -0.02 | tozasertib -0.078 | [7] -0.01 | doramapimod 0.009 | ispinesib 0.03
